Experimental data published in the supplement of paper PMC3741180, “A Novel High Throughput Biochemical Assay to Evaluate the HuR Protein-RNA Complex Formation” (PLoS ONE, 2013).
Several values for one entry are separate records, joined by “and”; a condition that tells them apart may be missing. Equal entries are not always repeated. The list shows a part of the results. Most values lie within the scatter of the assay; repeated measurements hardly agree. Bridge positions count the residues as written; N and C are the ends. Square brackets hold non-standard residues; d marks the D form. Peptide text beside a SMILES is read from it. * marks the point of attachment. Ileψ(thiazoline)Cys = CC[C@H](C)[C@H](N)C1=N[C@H](C(=O)*)CS1; dOrn = NCCC[C@@H](N)C(=O)O

Amino acid sequences for entries named in this document (tags omitted).
UniProt Q15717, whole entry: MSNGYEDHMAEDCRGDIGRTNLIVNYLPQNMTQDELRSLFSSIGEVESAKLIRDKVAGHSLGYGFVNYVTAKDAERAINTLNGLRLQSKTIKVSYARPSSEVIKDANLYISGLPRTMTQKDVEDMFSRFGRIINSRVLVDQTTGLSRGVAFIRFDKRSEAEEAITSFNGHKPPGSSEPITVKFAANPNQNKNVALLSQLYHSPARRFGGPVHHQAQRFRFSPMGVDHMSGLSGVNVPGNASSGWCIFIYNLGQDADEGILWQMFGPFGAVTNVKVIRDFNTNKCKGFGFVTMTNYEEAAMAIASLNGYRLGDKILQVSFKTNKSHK

molecular target: HuR (ELAVL1) - TNFalpha ARE RNA complex (UniProt Q15717); assay: AlphaScreen HuR-RNA complex signal Z-score relative to positive (Bi-TNF, DMSO) controls (Z-score (SD units of positive control)); higher = more complex signal; details: screen stage: primary screen; compound concentration: 25 nM

| Structure (SMILES) | AlphaScreen HuR-RNA complex signal Z-score |
| --- | --- |
| Cn1c(=O)[nH]c(=O)c2[nH]cnc21 | 1.54 |
| O=C(C1CCCCC1)N1CC(=O)N2CCc3ccccc3C2C1 (stereo not drawn) | 5.07 |
| CC(=O)NCCCS(=O)(=O)O | -0.135 |
| COc1ccc2c(c1OC)C(=O)O[C@@H]2[C@H]1c2c(cc3c(c2OC)OCO3)CCN1C | 2.56 |
| O=C1C=C(O)C(=O)c2ccccc21 | 0.456 |
| C=C1c2c(Cl)ccc(O)c2C(=O)C2=C(O)[C@]3(O)C(=O)C(C(N)=O)=C(O)[C@@H](N(C)C)[C@@H]3[C@@H](O)[C@H]12.O=C(O)c1cc(S(=O)(=O)O)ccc1O | 0.76 |
| C=CC(C)(O)CCC1C(=C)CC(OC(C)=O)C2C(C)(C)CCCC12C (stereo not drawn) | 0.804 |
| CN1CCN(CCCN2c3ccccc3Sc3ccc(C(F)(F)F)cc32)CC1 | -1.61 |
| COc1ccc(OC)c(C(O)CNC(=O)CN)c1 (stereo not drawn) | -0.0372 |
| COC(=O)C[C@H]1C(C)(C)C2(O)OC34CC2C(=O)[C@]1(C)C3CC[C@]1(C)C4=CC(=O)O[C@H]1c1ccoc1 (stereo partly drawn) [8beta-HYDROXYCARAPIN, 3,8-HEMIACETAL] | 1.29 |
| CNC[C@H](O)c1ccc(O)c(O)c1 | 5.52 |
| Cn1c(=O)c2nc(C3CCCC3)[nH]c2n(C)c1=O | 1.72 |
| Cc1c[nH]c2ccccc12 | 1.81 |
| O=c1cc(-c2ccc(O)cc2)oc2ccc(O)cc12 | -0.0291 |
| CC(=O)NS(=O)(=O)c1ccc(NC(=O)c2ccccc2C(=O)O)cc1 | 0.505 |
| CC[C@H](C)[C@H](N)C1=N[C@H](C(=O)N[C@@H](CC(C)C)C(=O)N[C@H](CCC(=O)O)C(=O)N[C@H](C(=O)N[C@H]2CCCCNC(=O)[C@H](CC(N)=O)NC(=O)[C@@H](CC(=O)O)NC(=O)[C@H](Cc3cnc[nH]3)NC(=O)[C@@H](Cc3ccccc3)NC(=O)[C@H]([C@@H](C)CC)NC(=O)[C@@H](CCCN)NC2=O)[C@@H](C)CC)CS1 ({Ileψ(thiazoline)Cys}-L[dE]IK[dOrn]I[dF]H[dD]N; lactam 4-C) | 0.291 |
| O=C(CCc1ccc(O)cc1)c1c(O)cc(O)cc1O | 1.27 |
| COc1ccc(-c2cc(=O)c3cc(OC)ccc3o2)cc1 | 1.06 |
| CN(C)CCOC(C)(c1ccccc1)c1ccccn1 (stereo not drawn) | -2.02 |
| C=CC(C1=CC(=O)C(OC)=CC1=O)c1ccc(OC)cc1 (stereo not drawn) | 2.13 |
| C[C@H]1[C@H](C)CC[C@]2(CO)CC[C@]3(C)C(=CC[C@@H]4[C@@]5(C)CC[C@H](O)C(C)(C)[C@@H]5CC[C@]43C)[C@H]12 | 2.25 |
| Oc1cc(O)c2c(c1)O[C@H](c1cc(O)c(O)c(O)c1)[C@H](O)C2 | 1.94 |
| C(=C\c1ccccc1)/CN1CCN(C(c2ccccc2)c2ccccc2)CC1 | 0.733 |
| CC(=O)OCC(=O)[C@@]1(O)CCC2C3CCC4=CC(=O)C=C[C@]4(C)[C@@]3(F)[C@@H](O)C[C@@]21C (stereo partly drawn) | 1.42 |
| C[C@@H]1C[C@H]2[C@@H]3CCC4=CC(=O)C=C[C@]4(C)[C@@]3(F)[C@@H](O)C[C@]2(C)[C@@]1(O)C(=O)COP(=O)(O)O | -3.25 |

| Structure (SMILES) | AlphaScreen HuR-RNA complex signal Z-score |
| --- | --- |
| CCN(CC)CCNC(C(=O)OCCC(C)C)c1ccccc1 (stereo not drawn) | 0.689 |
| OCCN(CCO)c1nc(N2CCCCC2)c2nc(N(CCO)CCO)nc(N3CCCCC3)c2n1 | -1.99 |
| O=C(O)c1ccccc1C(=O)Nc1ccc(S(=O)(=O)Nc2nccs2)cc1 | 1.23 |
| C[N+](C)(C)CC(=O)O | 0.261 |
| C[C@]12CC[C@@H]3c4ccc(OC(=O)c5ccccc5)cc4CC[C@H]3[C@@H]1CC[C@@H]2O | 1.46 |
| CN1CCN(C(c2ccccc2)c2ccccc2)CC1 | -1.75 |
| C[C@H](CCC(=O)O)[C@H]1CC[C@H]2[C@@H]3[C@@H](O)C[C@@H]4C[C@H](O)CC[C@]4(C)[C@H]3CC[C@]12C | -1.09 |
| O=C(CCCN1CCN(c2ccccn2)CC1)c1ccc(F)cc1 | 3.21 |
| NC[C@@H]1O[C@@H](O[C@H]2[C@H](O)[C@@H](O[C@H]3O[C@H](CO)[C@@H](O)[C@H](N)[C@H]3O)[C@H](N)C[C@@H]2N)[C@@H](O)[C@H](O)[C@H]1O | 0.312 |
| N[C@@H](Cc1cc(I)c(Oc2ccc(O)c(I)c2)c(I)c1)C(=O)O [LIOTHYRONINE (L- isomer) SODIUM] | 0.187 |
| N[C@@H](Cc1cc(I)c(Oc2ccc(O)c(I)c2)c(I)c1)C(=O)O | -0.681 |
| CN1CCC(=C2c3ccccc3Sc3ccccc32)CC1 | 0.652 |
| Nc1c2ccccc2nc2ccccc12 | -2.99 |
| COC1=CC(=O)C(C(=O)c2ccccc2)=CC1=O | 2.33 |
| CC(O)Cn1cnc2c1c(=O)n(C)c(=O)n2C (stereo not drawn) | 2.01 |
| N[C@@H](Cc1c[nH]c2ccccc12)C(=O)O | -1.33 |
| O=C(OOC(=O)c1ccccc1)c1ccccc1 | 0.6 |
| CCC1(C)OC(=O)N(C)C1=O (stereo not drawn) | 5.18 |
| NC(=O)CCCCC1CCSS1 (stereo not drawn) | 2.15 |
| NS(=O)(=O)c1cc2c(cc1C(F)(F)F)NCNS2(=O)=O | -3.56 |
| O=C(/C=C/c1ccc(O)cc1)c1ccc(O)cc1O | -0.25 |
| Cc1c(NC(=O)c2cccnc2)c(=O)n(-c2ccccc2)n1C | 2.26 |
| CS(=O)(=O)OCCCCOS(C)(=O)=O | 0.312 |
| OCc1c[nH]c2ccccc12 | 1.52 |
| COc1ccc(-c2coc3c(O)c(O)c(OC)cc3c2=O)cc1 | 0.38 |

| Structure (SMILES) | AlphaScreen HuR-RNA complex signal Z-score |
| --- | --- |
| CN1C(=O)CC[C@H]1c1cccnc1 | 1.17 |
| CC[C@@H]1C(=O)OC[C@@H]1Cc1cncn1C | 0.146 and 0.34 |
| Cc1cc(O)c(C=O)c(O)c1C(=O)O | 3.24 |
| CC(=O)N[C@H]1[C@H]([C@H](O)[C@H](O)CO)OC(O)(C(=O)O)C[C@@H]1O (mixture of isomers) | -3.16 |
| COc1cc(OC)c2c(c1Cl)O[C@@]1(C(=O)CC(=O)C[C@H]1C)C2=O | 2.7 |
| CCN(CC)CC(=O)Nc1c(C)cccc1C | -0.261 |
| c1ccc2c(CC3=NCCN3)cccc2c1 | 5.56 |
| CC(=O)OCC(=O)[C@@]12OC(C)(C)O[C@@H]1C[C@H]1[C@@H]3C[C@H](F)C4=CC(=O)C=C[C@]4(C)[C@@]3(F)[C@@H](O)C[C@@]12C | -2.25 |
| NC(=O)NCCC[C@H](N)C(=O)O | 1.96 |
| O=c1oc2c(O)c(O)cc3c(=O)oc4c(O)c(O)cc1c4c23 | 0.686 |
| O=C1NS(=O)(=O)c2ccccc21 | 1.45 |
| NS(=O)(=O)c1cc2c(cc1Cl)NC(C1CC3C=CC1C3)NS2(=O)=O (stereo not drawn) | 0.439 |
| CC(=O)CC(c1ccccc1)c1c(O)c2ccccc2oc1=O (stereo not drawn) | -1.35 |
| Oc1ccc([C@H]2Oc3cc(O)cc(O)c3C[C@H]2O)cc1 | 1.47 |
| COc1cccc2c1C(=O)c1c(O)c3c(c(O)c1C2=O)C[C@@](O)(C(C)=O)C[C@@H]3O[C@H]1C[C@H](N)[C@H](O)[C@H](C)O1 | -2.85 |
| O=C(O[C@@H]1Cc2c(O)cc(O)cc2O[C@@H]1c1cc(O)c(=O)c2c(O)c(O)cc([C@H]3Oc4cc(O)cc(O)c4C[C@H]3OC(=O)c3cc(O)c(O)c(O)c3)c2c1)c1cc(O)c(O)c(O)c1 | -0.397 |
| OCc1ccccc1O[C@@H]1O[C@H](CO)[C@@H](O)[C@H](O)[C@H]1O | 0.501 |
| CC(=O)NS(=O)(=O)c1ccc(N)cc1 | 11.6 |
| Nc1cc(N2CCCCC2)nc(N)[n+]1[O-] | 2.58 |
| CC1=C(/C=C/C(C)=C/C=C/C(C)=C/CO)C(C)(C)CCC1 | 1.15 |
| O=C(O)c1ccccc1OP(=O)(O)O | 0.635 |
| COC(=O)c1c(C)cc(OC(=O)c2c(C)cc(O)c(C=O)c2O)c(C)c1O | 2.39 |
| C/C=C(/C(=C/C)c1ccc(O)cc1)c1ccc(O)cc1 | -2.03 |
| Cc1ncc([N+](=O)[O-])n1CC(C)O (stereo not drawn) | 2.18 |
| COc1ccc([C@@H](C)C(=O)c2ccc(O)cc2O)cc1 | 1.46 |

| Structure (SMILES) | AlphaScreen HuR-RNA complex signal Z-score |
| --- | --- |
| CC1(C)S[C@@H]2[C@H](NC(=O)[C@H](N)c3ccccc3)C(=O)N2[C@H]1C(=O)O | 0.315 |
| C=C[C@H]1CN2CC[C@H]1C[C@H]2[C@H](O)c1ccnc2ccc(OC)cc12 | 23.4 |
| O=C(/C=C/c1ccccc1)c1ccc(O[C@@H]2O[C@H](CO)[C@@H](O)[C@H](O)[C@H]2O)cc1O | 2.57 |
| O=c1n(CCCN2CCN(c3cccc(Cl)c3)CC2)nc2ccccn12 | 1.35 |
| CC1/C(=N/O)C[C@@H]2C[C@H]1C2(C)C (stereo partly drawn) | 1.61 |
| O=C(CCNNC(=O)c1ccncc1)NCc1ccccc1 | 3.56 |
| Cc1nc2ccccn2c(=O)c1CCN1CCC(C(=O)c2ccc(F)cc2)CC1 | 1.75 |
| CSc1nc2cc(Cl)c(Oc3cccc(Cl)c3Cl)cc2[nH]1 | 0.803 |
| NC(=O)c1cnccn1 | 9.97 |
| CC(=O)c1ccc[nH]1 | 1.26 |
| CC(=O)O[C@H]1C(=O)[C@@]2(C)[C@H]([C@H](OC(=O)c3ccccc3)[C@]3(O)C[C@H](OC(=O)[C@H](O)[C@@H](NC(=O)c4ccccc4)c4ccccc4)C(C)=C1C3(C)C)[C@]1(OC(C)=O)CO[C@@H]1C[C@@H]2O | 0.93 |
| COc1cccc2c1C(=O)c1c(O)c3c(c(O)c1C2=O)C[C@@](O)(C(=O)CO)C[C@@H]3O[C@H]1C[C@H](N)[C@@H](O)[C@H](C)O1 | 0.5 |
| COc1ccc2c(c1)CC[C@@H]1[C@@H]2CC[C@]2(C)[C@@H](O)CC[C@@H]12 | 0.993 |
| O[C@H]1[C@H](O)[C@@H](O)[C@H](O)[C@@H](O)[C@H]1O | -1.29 |
| C/C=C/c1ccc(OC)cc1 | 0.653 |
| C=C(C)[C@@H]1CC[C@]2(CO)CC[C@]3(C)[C@H](CC[C@@H]4[C@@]5(C)CC[C@H](O)C(C)(C)[C@@H]5CC[C@]43C)[C@@H]12 | 1.02 |
| Oc1cccc(O)c1 | -1.9 |
| Cc1cc(O)cc(C)c1Cl | -0.268 |
| CC(=O)N(c1onc(C)c1C)S(=O)(=O)c1ccc(N)cc1 | 0.209 |
| C=C1CCC(C2CC(=O)OC2=O)C(=O)CCC2C1CC2(C)C (stereo not drawn) | -0.303 |
| CC(N)CCCC(C)(C)O (stereo not drawn) | 3.15 |
| CN1CCCN=C1/C=C/c1cccc(O)c1 | 1.48 |
| CC(C)OC(=O)C(C)(C)Oc1ccc(C(=O)c2ccc(Cl)cc2)cc1 | 0.479 |

A different layout for some results above.
Structure (SMILES)	AlphaScreen HuR-RNA complex signal Z-score
COc1ccc([C@@H](C)C(=O)c2ccc(O)cc2O)cc1	1.46
CC1(C)S[C@@H]2[C@H](NC(=O)[C@H](N)c3ccccc3)C(=O)N2[C@H]1C(=O)O	0.315
C=C[C@H]1CN2CC[C@H]1C[C@H]2[C@H](O)c1ccnc2ccc(OC)cc12	23.4
O=C(/C=C/c1ccccc1)c1ccc(O[C@@H]2O[C@H](CO)[C@@H](O)[C@H](O)[C@H]2O)cc1O	2.57
O=c1n(CCCN2CCN(c3cccc(Cl)c3)CC2)nc2ccccn12	1.35
CC1/C(=N/O)C[C@@H]2C[C@H]1C2(C)C (stereo partly drawn)	1.61
O=C(CCNNC(=O)c1ccncc1)NCc1ccccc1	3.56
Cc1nc2ccccn2c(=O)c1CCN1CCC(C(=O)c2ccc(F)cc2)CC1	1.75
CSc1nc2cc(Cl)c(Oc3cccc(Cl)c3Cl)cc2[nH]1	0.803
NC(=O)c1cnccn1	9.97
CC(=O)c1ccc[nH]1	1.26
CC(=O)O[C@H]1C(=O)[C@@]2(C)[C@H]([C@H](OC(=O)c3ccccc3)[C@]3(O)C[C@H](OC(=O)[C@H](O)[C@@H](NC(=O)c4ccccc4)c4ccccc4)C(C)=C1C3(C)C)[C@]1(OC(C)=O)CO[C@@H]1C[C@@H]2O	0.93
COc1cccc2c1C(=O)c1c(O)c3c(c(O)c1C2=O)C[C@@](O)(C(=O)CO)C[C@@H]3O[C@H]1C[C@H](N)[C@@H](O)[C@H](C)O1	0.5
COc1ccc2c(c1)CC[C@@H]1[C@@H]2CC[C@]2(C)[C@@H](O)CC[C@@H]12	0.993
O[C@H]1[C@H](O)[C@@H](O)[C@H](O)[C@@H](O)[C@H]1O	-1.29
C/C=C/c1ccc(OC)cc1	0.653
Oc1cccc(O)c1	-1.9
CC(=O)N(c1onc(C)c1C)S(=O)(=O)c1ccc(N)cc1	0.209
C=C1CCC(C2CC(=O)OC2=O)C(=O)CCC2C1CC2(C)C (stereo not drawn)	-0.303
CC(N)CCCC(C)(C)O (stereo not drawn)	3.15
CC(C)OC(=O)C(C)(C)Oc1ccc(C(=O)c2ccc(Cl)cc2)cc1	0.479
